Experimental findings from PubChem BioAssay AID2685 (National Center for Advancing Translational Sciences (NCATS), 2010) are described below.

This assay is described as follows: qHTS Assay for Lipid Storage Modulators in Drosophila S3 Cells.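 For cell number change: cells counted by Cell Tracker Red CMTPX staining in the red channel.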 The conditions noted are these: BODIPY lipid droplet fluorescence, 18-24 h; for cell number change: measured here: cell count max response, cells fed with added oleic acid. In short, it runs like this: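 Drosophila S3 cells loaded with oleic acid (400 uM, as added) and compounds at several concentrations; lipid droplets imaged by 488-nm laser-scanning cytometry, 500–530 nm intensity and object ratio to cell channel. Percent activity normalized to 20 uM Triacsin C.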
Background: qHTS replaces the single test concentration by a dilution series.

[1] abbreviates: measured here: cell number channel AC50, cells fed with added oleic acid.
Where [2] appears, read: measured here: lipid fluorescence (Fed channel) AC50, cells fed with added oleic acid.

SMILES strings stand for the structures. The list shows a part of the results. The main result of the screen is listed elsewhere. These columns were measured beside it and carry no call. Most of these compounds were active or inconclusive in the main read-out, so they are no random draw. The note in brackets gives the kind of curve behind each potency; many fits are weak.

For `CC1CN(O)C2CCc3c(no[n+]3[O-])C12O` (configuration not stated), the AC50 – broadly, the concentration giving half of the maximal activity seen – under setting [1] was 517 nM [rising, single point].
Consider `COc1ccc(-n2c(/C=C/c3ccc4c(c3)OCO4)nc3ccccc3c2=O)cc1`, for which the cell number change is 38.2%. Moreover, the AC50 under setting [1] was 2060 nM [rising, partial curve]. Besides, the AC50 under setting [2] was 651 nM [rising, full curve].
Consider `CN(C)c1ccc(CN2CC=C(c3ccc(F)cc3)CC2)cc1`, for which the cell number change was determined as 13.2%. Further, the AC50 under setting [1] was 32.6 nM [rising, full curve, poor fit]. For the same compound, the half-maximal activity concentration (AC50) under setting [2] was 3260 nM [falling, partial curve].
In the case of `C=CCN1C(=O)NC(=O)/C(=C/c2ccc(OCC(=O)Nc3ccc(C)cc3)cc2)C1=O`, the cell number change came out at 24.4%. For the same compound, under setting [2], the AC50 is 8200 nM [rising, partial curve, poor fit].
On to `N#Cc1cc2c(nc1SCC(=O)Nc1ccc(Cl)cc1)C1CCN2CC1`, for which the cell number change amounted to 5.39%. The AC50 under setting [1] was 326 nM [rising, full curve].
With `C=C1C(=O)O[C@@H]2C[C@@H](C)[C@H]3C=CC(=O)[C@]3(O)C[C@@H]12`, the cell number change was -34.6%. In addition, the half-maximal activity concentration (AC50) under setting [1] is 1030 nM [falling, full curve, poor fit].
On to `Cc1cccc(CCNCc2cc3cccc(C)c3[nH]c2=O)c1`, for which the AC50 by setting is: under setting [1], 2310 nM [falling, partial curve]; under setting [2], 9.2 nM [falling, full curve, poor fit].
Regarding `O=c1[nH]c(=S)n(-c2ccccc2)c(O)c1C=NCCN1CCNCC1`, the AC50 under setting [1] was 651 nM [falling, single point].
As to `CCOC(=O)C(O)(c1ccc(N(CC)S(=O)(=O)c2ccc(C)cc2)cc1)C(F)(F)F` (configuration not stated), the cell number change is -74.5%. Moreover, the AC50 under setting [1] is 231 nM [falling, full curve]. Also, under setting [2], the half-maximal activity concentration (AC50) was 184 nM [falling, full curve].
As to `COc1cccc(CNCCc2cccc(F)c2)c1OC`, the cell number change amounted to 27.4%. For the same compound, under setting [2], the half-maximal activity concentration (AC50) is 29100 nM [rising, single point].
In the case of `N#Cc1ccc(N2CCNCC2)c(F)c1`, the cell number change is 10.1%. Further, under setting [2], the AC50 was 51.7 nM [falling, full curve].
With `COP(=O)(C#Cc1ccccc1)C(O)c1ccc(Br)cc1` (configuration not stated), the cell number change was -0.0168%. Moreover, the AC50 under setting [1] was 146 nM [rising, full curve, poor fit]. Further, the concentration at half-maximal activity (AC50) under setting [2] is 7310 nM [rising, partial curve].
On to `c1cncc(CNC2CCCCC2)c1`, for which the cell number change is -20.9%.
On to `O=C1Nc2cc(C(=O)N3CCC4(CC3)OCCO4)ccc2S/C1=C\c1ccccc1`, for which the cell number change is -26.4%. Also, the concentration at half-maximal activity (AC50) under setting [1] is 5.8 nM [falling, full curve, poor fit]. Also, the AC50 under setting [2] is 1460 nM [falling, full curve, poor fit].
Take `O=[N+]([O-])c1cc([As](=O)(O)O)ccc1O`: the cell number change was -19.6%. In addition, the AC50 under setting [2] is 10300 nM [falling, partial curve].
